Test results taken from article PMC8042168, “The cell surface hyaluronidase TMEM2 regulates cell adhesion and migration via degradation of hyaluronan at focal adhesion sites” (The Journal of Biological Chemistry, 2021).

Biological target: T1, mCherry-tagged full-length mouse TMEM2 (transmembrane protein 2) (mouse) (UniProt Q5FWI3)
T1 sequence: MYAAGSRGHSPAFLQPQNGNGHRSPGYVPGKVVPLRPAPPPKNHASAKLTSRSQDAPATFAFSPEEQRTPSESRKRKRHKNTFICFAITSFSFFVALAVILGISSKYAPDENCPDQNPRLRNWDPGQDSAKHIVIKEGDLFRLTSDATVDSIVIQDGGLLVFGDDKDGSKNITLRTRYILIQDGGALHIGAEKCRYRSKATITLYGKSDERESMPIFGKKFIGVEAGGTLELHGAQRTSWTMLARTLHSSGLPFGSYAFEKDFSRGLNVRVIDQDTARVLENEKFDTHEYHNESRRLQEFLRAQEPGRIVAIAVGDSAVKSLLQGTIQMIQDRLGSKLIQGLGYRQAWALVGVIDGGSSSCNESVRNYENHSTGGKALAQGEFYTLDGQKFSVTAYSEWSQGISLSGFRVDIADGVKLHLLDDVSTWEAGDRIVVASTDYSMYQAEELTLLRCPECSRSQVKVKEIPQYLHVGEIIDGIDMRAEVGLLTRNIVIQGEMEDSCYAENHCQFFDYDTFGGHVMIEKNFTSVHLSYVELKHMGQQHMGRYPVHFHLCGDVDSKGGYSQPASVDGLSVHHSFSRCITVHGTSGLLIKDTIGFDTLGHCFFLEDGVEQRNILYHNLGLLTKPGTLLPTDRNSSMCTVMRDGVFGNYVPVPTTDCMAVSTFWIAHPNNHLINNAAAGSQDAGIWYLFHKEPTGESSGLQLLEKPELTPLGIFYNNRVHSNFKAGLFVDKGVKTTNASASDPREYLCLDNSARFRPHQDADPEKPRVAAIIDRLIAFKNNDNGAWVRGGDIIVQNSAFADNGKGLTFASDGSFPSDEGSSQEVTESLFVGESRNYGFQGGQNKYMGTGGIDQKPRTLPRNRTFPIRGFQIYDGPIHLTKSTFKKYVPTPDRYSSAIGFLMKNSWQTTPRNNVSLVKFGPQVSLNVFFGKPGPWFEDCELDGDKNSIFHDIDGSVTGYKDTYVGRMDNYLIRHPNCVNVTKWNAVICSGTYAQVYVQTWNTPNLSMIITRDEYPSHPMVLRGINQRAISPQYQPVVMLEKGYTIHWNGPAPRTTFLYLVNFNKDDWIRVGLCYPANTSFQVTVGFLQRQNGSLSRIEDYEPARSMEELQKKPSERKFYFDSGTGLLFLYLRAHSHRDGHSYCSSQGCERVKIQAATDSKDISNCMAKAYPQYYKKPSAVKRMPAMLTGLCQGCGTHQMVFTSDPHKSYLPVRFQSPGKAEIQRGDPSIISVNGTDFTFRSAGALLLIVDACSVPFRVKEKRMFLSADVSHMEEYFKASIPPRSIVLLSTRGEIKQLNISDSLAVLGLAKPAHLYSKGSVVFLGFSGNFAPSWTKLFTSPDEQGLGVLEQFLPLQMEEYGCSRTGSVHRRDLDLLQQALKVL
Test: cross-linking + co-IP; mCherry-mTMEM2 U2OS cells on fibronectin treated with 1 mM membrane-impermeable DTSSP in HBSS, 30 min RT; RIPA lysate precipitated with RFP-Trap agarose overnight at 4 °C; blots for α5, β1 and mCherry

With “integrin α5β1 (human (endogenous in U2OS)) (receptor)” the binding was “binds”.

Results are given in words; binding and its absence hold for the method and conditions named. In cells and extracts the contact can be indirect. A result given as binding can be weak or reduced; the word gives no strength. Sequences can lack the tags named with a protein.
